Values quoted from earlier work, collected in US20080107603A1, “Neuroprotectant methods, compositions, and screening methods thereof” (priority 2002, published 2008).
At least one compound was matched to its structure with a doubt left.

Settings: Pig; cited from earlier work

## C[N+](C)(C)[C@@H](Cc1c[nH]c(=S)[nH]1)C(=O)[O-] [L-ergothioneine, 2-mercaptohistidine trimethylbetaine]
  L-Ergothioneine Concentration (mg/100 ml blood): 3-2.7
